Assay results: PubChem BioAssay AID200 (DTP/NCI, 2004)
The list does not hold the whole screen: it is rich in T/C values a quarter to a half above the control, in often repeated tests (any T/C) and in doses without a T/C. Other doses and runs of a compound stand elsewhere. T/C gives the treated animals as a percentage of the vehicle group. Some entries give survivors of the animals treated and no T/C: the source holds a T/C of zero for them, seemingly a mark for toxic or unscored doses. Some survivor counts are full or nearly so, which does not show that the dose was tolerated: survival well below the control is almost never listed, so the zero probably covers shortened survival too. Counts of survivors are from the toxicity check (mostly the fifth day) where no day follows; animals may have died later. Schedules are NCI's codes, taken here to give the interval after Q, in days (D) or hours (H), and the number of doses after X. Some doses were run more than once; their values stand side by side, smallest first. For survival time, the PubChem record calls one and a half times the control and up active, and a quarter to a half above the control has no call in these data; cut-offs in other NCI protocols can differ. Some T/C values carry the count of animals alive at the toxicity check (mostly the fifth day); without a count, all were alive then.

Tested on: B6C3F1 mice, B16 melanoma ip, median survival T/C
Assay: NCI In Vivo Anticancer Drug Screen. Data for tumor model B16 Melanoma (intraperitoneal) in B6C3F1 mice
Conditions: T/C endpoint: median survival time, schedule: Q01DX009 (ip), higher T/C = longer survival
Procedure, shortened: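 Mice bearing transplanted tumor were dosed with compound or vehicle, and survival was recorded. Activity is expressed as the treated-group measurement (T) divided by the vehicle control measurement (C).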

[1] = dose: 100.0 mg/kg/injection, vehicle: saline
[2] = dose: 200.0 mg/kg/injection, vehicle: Klucel (hydroxypropylcellulose) (HPC)
[3] = dose: 400.0 mg/kg/injection, vehicle: saline with Tween-80
[4] = dose: 12.5 mg/kg/injection, vehicle: saline with Tween-80
[5] = dose: 100.0 mg/kg/injection, vehicle: saline with Tween-80
[6] = dose: 200.0 mg/kg/injection, vehicle: saline with Tween-80
[7] = dose: 50.0 mg/kg/injection, vehicle: saline
[8] = dose: 20.0 mg/kg/injection, vehicle: saline
[9] = dose: 0.06 mg/kg/injection, vehicle: DMSO
[10] = dose: 0.5 mg/kg/injection, vehicle: DMSO

## O=[N+]([O-])O.[Ga]
[1]
  survivor count: 10 of 10
dose: 200.0 mg/kg/injection, vehicle: saline
  survivor count: 8 of 10
dose: 400.0 mg/kg/injection, vehicle: saline
  survivor count: 3 of 10

## CCC(=O)[O-].CCC(=O)[O-].CCC(=O)[O-].CCC(=O)[O-].O=S(=O)(O)O.[Re].[Re]
dose: 180.0 mg/kg/injection, vehicle: suspension in saline
  survivor count: 10 of 10

## O=C1c2ccccc2C(=O)c2c(NCCNCCO)ccc(O)c21
dose: 5.0 mg/kg/injection, vehicle: suspension in saline
  T/C: 130 % of control
dose: 10.0 mg/kg/injection, vehicle: suspension in saline
  T/C: 129 % of control

## C=C1C(=O)OC2/C=C(\CO)CC/C=C(\CO)CC(OC(=O)C(C)C)C12 (stereo not given)
dose: 7.5 mg/kg/injection, vehicle: Klucel (hydroxypropylcellulose) (HPC)
  survivor count: 7 of 7
dose: 15.0 mg/kg/injection, vehicle: Klucel (hydroxypropylcellulose) (HPC)
  survivor count: 7 of 7
dose: 30.0 mg/kg/injection, vehicle: Klucel (hydroxypropylcellulose) (HPC)
  survivor count: 6 of 7

## CN1N=C(N)c2cn(C3OC(COP(=O)(O)O)C(O)C3O)c3ncnc1c23 (stereo not given)
[2]
  survivor count: 1 of 8

## COC(=O)C12OCC34C(CC5C(C)C6=CC(=O)OC6=CC5(C)C3C(O)C1O)OC(=O)C(O)C24 (stereo not given)
dose: 0.13 mg/kg/injection, vehicle: Klucel (hydroxypropylcellulose) (HPC)
  T/C: 149 % of control
dose: 0.25 mg/kg/injection, vehicle: Klucel (hydroxypropylcellulose) (HPC)
  T/C: 145 % of control
dose: 1.0 mg/kg/injection, vehicle: Klucel (hydroxypropylcellulose) (HPC)
  T/C: 149 % of control [9 of 10 alive]
dose: 2.0 mg/kg/injection, vehicle: Klucel (hydroxypropylcellulose) (HPC)
  survivor count: 7 of 10
dose: 300.0 micrograms/kg/injection, vehicle: Klucel (hydroxypropylcellulose) (HPC)
  T/C: 133 % of control
dose: 500.0 micrograms/kg/injection, vehicle: Klucel (hydroxypropylcellulose) (HPC)
  T/C: 149 % of control

## O=C(CCl)Oc1ccc(-c2ccccc2)cc1Br
[3]
  survivor count: 6 of 10

## Cc1ccc(Cl)c2ccccc12
[4]
  survivor count: 10 of 10
[5]
  survivor count: 9 of 10
[6]
  survivor count: 10 of 10
[3]
  survivor count: 2 of 10 and 8 of 10

## NCCSC(C[N+](=O)[O-])c1ccccc1Cl (stereo not given)
[7]
  survivor count: 6 of 10
[1]
  survivor count: 0 of 10

## CCN(CC)CCCC(C)Nc1c2ccc(C)cc2nc2ccc(OC)cc12 (stereo not given)
[7]
  T/C: 130 % of control
[1]
  survivor count: 6 of 10

## O=c1[nH]cnc2c1cnn2CN1CCOCC1
[2]
  survivor count: 7 of 10
dose: 400.0 mg/kg/injection, vehicle: Klucel (hydroxypropylcellulose) (HPC)
  survivor count: 1 of 10

## COc1cccc2c1C(=O)c1c(O)c3c(c(O)c1C2=O)C[C@@](O)(C(=O)COC(=O)c1cccnc1)C[C@@H]3OC1CC(N)C(O)C(C)O1 (stereo not given in full)
dose: 4.0 mg/kg/injection, vehicle: saline
  survivor count: 10 of 10
dose: 8.0 mg/kg/injection, vehicle: saline
  survivor count: 10 of 10

## Cc1cccc2c1CC(C(C)C)C2 (stereo not given)
[6]
  survivor count: 9 of 10

## ClCCCN1CCN(CCCl)CC1
dose: 5.0 mg/kg/injection, vehicle: saline
  T/C: 93 [9 of 10 alive], 130, 153, 178 % of control
dose: 10.0 mg/kg/injection, vehicle: saline
  T/C: 108, 149, 191, 260 % of control
[8]
  T/C: 106 % of control
  survivor count: 10 of 10
dose: 40.0 mg/kg/injection, vehicle: saline
  survivor count: 5 of 10, 8 of 10, 10 of 10

## CC1(c2ccc(Cl)cc2)OC(=O)C(=Cc2ccc([N+](=O)[O-])s2)C(=O)O1 (stereo not given)
[5]
  survivor count: 10 of 10
[6]
  survivor count: 7 of 10

## O=c1c(O)c(O)c1=O.[NH2-].[NH2-].[NH2-].[NH2-].[NH2-].[Ru+5]
dose: 6.25 mg/kg/injection, vehicle: saline
  T/C: 126 % of control
dose: 12.5 mg/kg/injection, vehicle: saline
  survivor count: 6 of 10
dose: 17.36 mg/kg/injection, vehicle: saline
  T/C: 139 % of control
dose: 28.94 mg/kg/injection, vehicle: saline
  T/C: 148 % of control [8 of 10 alive]
[7]
  survivor count: 0 of 10

## Clc1ccc2c(Cl)ncnc2c1
[5]
  survivor count: 10 of 10
[6]
  survivor count: 4 of 10

## COC(=Nc1ccccc1)SSC(C)C
dose: 3.0 mg/kg/injection, vehicle: saline with Tween-80
  T/C: 128 % of control
dose: 6.25 mg/kg/injection, vehicle: saline with Tween-80
  survivor count: 10 of 10
dose: 50.0 mg/kg/injection, vehicle: saline with Tween-80
  survivor count: 10 of 10
[5]
  survivor count: 3 of 10
[6]
  survivor count: 0 of 10

## Clc1ccc2nnnn2n1
[4]
  T/C: 126 % of control
dose: 100.0 mg/kg/injection, vehicle: saline with Tween-80, evaluated on day 45
  T/C: 134 % of control [9 of 10 alive]
dose: 100.0 mg/kg/injection, vehicle: saline with Tween-80, evaluated on day 60
  T/C: 137 % of control
[6]
  T/C: 134 % of control [8 of 10 alive]
  survivor count: 5 of 10
[3]
  survivor count: 4 of 10, 6 of 10, 7 of 10

## Cc1ccc(C(=Nc2ccccc2)N=P(c2ccccc2)(c2ccccc2)c2ccccc2)cc1
[5]
  survivor count: 4 of 10
[6]
  survivor count: 1 of 10

## C/C=C/C=C/c1cc2cc3c(c(O)c2c(=O)[nH]1)C1(CC3)C(O)=c2c(=O)c3c(=O)cc(OC)c(=O)c=3c(=O)c2=C1O (stereo not given)
dose: 0.03 mg/kg/injection, vehicle: DMSO
  survivor count: 10 of 10
[9]
  T/C: 106 and 122 % of control
  survivor count: 10 of 10
dose: 0.12 mg/kg/injection, vehicle: DMSO
  T/C: 90, 110, 117 % of control
dose: 0.25 mg/kg/injection, vehicle: DMSO
  T/C: 107 [9 of 10 alive], 119, 135 % of control [6 of 7 alive]
[10]
  T/C: 123 % of control
  survivor count: 6 of 10 and 10 of 10
dose: 1.0 mg/kg/injection, vehicle: DMSO
  survivor count: 0 of 10, 6 of 10, 7 of 10
dose: 2.0 mg/kg/injection, vehicle: DMSO
  survivor count: 0 of 10 and 1 of 10
dose: 3.0 mg/kg/injection, vehicle: Klucel (hydroxypropylcellulose) (HPC)
  T/C: 128 % of control
dose: 4.0 mg/kg/injection, vehicle: DMSO
  survivor count: 0 of 10
dose: 6.0 mg/kg/injection, vehicle: Klucel (hydroxypropylcellulose) (HPC)
  T/C: 133 % of control
dose: 8.0 mg/kg/injection, vehicle: DMSO
  survivor count: 0 of 10
dose: 12.0 mg/kg/injection, vehicle: Klucel (hydroxypropylcellulose) (HPC)
  T/C: 133 % of control

## N#Cc1ccc(NC(=O)Nc2nccs2)cc1
dose: 12.5 mg/kg/injection, vehicle: distilled water + Tween-80
  T/C: 126 % of control
dose: 25.0 mg/kg/injection, vehicle: distilled water + Tween-80
  T/C: 141 % of control
dose: 50.0 mg/kg/injection, vehicle: distilled water + Tween-80
  T/C: 132 % of control
dose: 200.0 mg/kg/injection, vehicle: distilled water + Tween-80
  survivor count: 0 of 10
